Among the data in PubChem BioAssay AID445 (National Center for Advancing Translational Sciences (NCATS), 2006) are AC50 values, retold here.

The nature of the experiment: IkB Signaling. The settings on record: ABC-DLBCL IkBa-CBG/CBR dual luciferase ratio (green luciferase fused to IkBa over red control in OCI-Ly3 lymphoma cells), 4 h. A digest of the protocol:
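Curves were fitted separately to fusion (green), unfused (red) and ratio luminescence, then classed by r2, magnitude and activity. Cells: OCI-Ly3, 4 h compound plus doxycycline at 37C; 10 uM MG-132 defined full response.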

The mark [1] stands for this setting: measured here: control luc red channel unless noted.
Where [2] appears, read: measured here: IkB-luc green channel.
Setting [3] is: measured here: control luc red channel.

The list shows a part of the results. The main result of the screen is listed elsewhere. These columns were measured beside it and carry no call. The list favours compounds with an active or inconclusive main result. The note in brackets gives the kind of curve behind each potency; many fits are weak.

The term AC50 denotes the concentration giving half of the maximal activity seen. Take `O=C(Nc1ccccc1)c1cccc(S(=O)(=O)Nc2cccc(F)c2)c1`: the AC50 under setting [1] is 0.00631 µM [falling, full curve]. On the same count and under the same terms, with `COc1ccc(OC)c(-c2cc(C(=O)NC(C)c3ccccc3)no2)c1` (stereo not drawn) the figure was 0.316 µM [rising, full curve]; with `COc1cccc(-c2ccc3c(N)c(C(=O)NCc4ccc(Cl)cc4)sc3n2)c1`, 12.6 µM [falling, partial curve]; with `CCOC(=O)N1CCc2c(sc(NCc3ccc(OC)c(OC)c3OC)c2C(=O)Nc2ccc(OC)cc2OC)C1`, 15.8 µM [falling, partial curve]. As for `CCCCCOc1ccc(/C=C/C(=O)Nc2sc(C(C)=O)c(C)c2C(=O)OCC)cc1OC`, under setting [1], the half-maximal activity concentration (AC50) was 25.1 µM [rising, partial curve, poor fit]. Still for that read-out and setting: with `CCc1ccc(-n2c(=O)c3sc4ccccc4c3n(Cc3cccc(F)c3)c2=O)cc1` the figure was 3.16 µM [rising, partial curve]. For the molecule `CCN1C(=O)/C(=C2/Sc3ccc(OC)cc3N2C)SC1=Nc1cccc(O)c1`, the AC50 runs as follows: under setting [2], 12.6 µM [rising, partial curve]; under setting [3], 7.94 µM [rising, partial curve]. As for `COc1ccccc1CNC(=O)c1ccc2nc(-c3ccccc3)c(-c3ccccc3)nc2c1`, under setting [1], the AC50 is 10 µM [falling, partial curve].

As to `CCn1cc(C(=O)NCc2ccc(C)cc2)c(=O)c2cc(S(=O)(=O)N3CCCCCC3)ccc21`, the AC50 under setting [1] was 39.8 µM [falling, single point].

In the case of `COc1ccc(NC(=O)C2CCN(c3nc(C)nc4c3CCC4)CC2)cc1`, the AC50 under setting [1] was 12.6 µM [falling, partial curve].

Turning to `O=C(CCc1nc2cccnc2n1Cc1cccs1)Nc1cccc(Cl)c1`, the AC50 under setting [1] is 39.8 µM [falling, single point].

Turning to `CCCCN(C)CCCNC(=O)CC1Oc2ccccc2NC1=O` (stereo not drawn), under setting [1], the AC50 is 10 µM [falling, partial curve].

For `COc1ccc(CNC(=O)c2ccc3c(c2)N(Cc2cccc(Cl)c2)C(=O)c2ccccc2S3)c(OC)c1`, under setting [1], the AC50 was 3.16 µM [falling, partial curve]. Same read-out and setting: the figure for `COc1cc(OC)cc(C(=O)NCc2n[nH]c(=S)n2-c2ccccc2OC)c1` is 0.316 µM [falling, full curve]; for `Cc1cccn2c(Nc3ccccc3)c(-c3ccc(N4CCOCC4)cc3)nc12` it is 20 µM [falling, partial curve].

In the case of `CCOC(=O)N1CCN(C(=O)c2ccc3c(=O)n(Cc4ccccc4)c(=S)[nH]c3c2)CC1`, the AC50 under setting [1] was 31.6 µM [falling, partial curve]. Same read-out and setting: the figure for `CCOc1ccc(NC(=O)CSc2nccn2-c2cccc(C)c2C)cc1` is 0.251 µM [falling, full curve, poor fit]. The same measure, in the same setting: with `O=S(=O)(NCC(c1ccco1)S(=O)(=O)c1cccs1)c1ccc(F)c(C(F)(F)F)c1` (stereo not drawn) the figure was 3.16 µM [falling, single point]; with `Cc1cc(C(=O)CSc2nc3ccc(Cl)cc3[nH]2)c(C)n1C`, 31.6 µM [falling, single point]; with `Cc1cc(NC(=O)c2ccc3c(c2)N(Cc2cccc(Cl)c2)C(=O)c2ccccc2S3=O)ccc1Br` (stereo not drawn), 15.8 µM [falling, partial curve]. The same measure, in the same setting: with `CC(=O)c1c(C)n(CC(=O)NCc2ccc3c(c2)OCO3)c2ccccc12` the figure was 12.6 µM [falling, partial curve]; with `COc1cc(/C=C\C(=O)N2CCC=CC2=O)cc(OC)c1OC`, 10 µM [falling, partial curve]. With `Cc1nn(-c2ccccc2)c(OC(=O)c2ccccc2F)c1S(=O)(=O)c1ccccc1`, under setting [1], the AC50 is 1.58 µM [falling, full curve, poor fit]. Still for that read-out and setting: with `CCn1c(=O)c2cc(C(=O)N3CCN(c4cccc(Cl)c4)CC3)sc2c2ccccc21` the figure was 5.01 µM [falling, partial curve]; with `N#Cc1ccccc1NC(=O)c1cc2c(=O)n3ccccc3nc2s1`, 0.00631 µM [rising, full curve, poor fit]; with `COc1ccc(C(=O)Nc2ccc(Cl)cc2C(=O)NCc2ccco2)cc1OC`, 12.6 µM [falling, partial curve].

Consider `Cc1cc(C)c(C#N)c(SCC(=O)OC2CCCCC2)n1`, for which the AC50 under setting [1] was 12.6 µM [falling, partial curve]. The same measure, in the same setting: with `CCOc1ccccc1Nc1nc(-c2cccc(Cl)c2)c2c(n1)-c1ccccc1OC2` the figure was 3.16 µM [falling, single point]. `COc1ccc(-c2noc(-c3ccc(NCc4ccco4)c([N+](=O)[O-])c3)n2)cc1`: the AC50 under setting [1] is 6.31 µM [falling, partial curve]. On the same count and under the same terms, the figure for `CCOC(=O)c1cccc(NC(=O)CCc2c(C)nc3cc(-c4ccc(Cl)cc4)nn3c2C)c1` is 0.0316 µM [falling, full curve]; for `CCc1nnc(SCC(=O)N(C)c2ccccc2)c2cc3sccc3n12` it is 10 µM [falling, partial curve]; for `Cn1cnnc1SCC(=O)Nc1cc(C(=O)O)cc(C(=O)O)c1` it is 1 µM [rising, single point]. For `CCc1ccc(Oc2nc3c(C)cccn3c(=O)c2/C=C(\C#N)c2nc3ccccc3[nH]2)cc1`, the AC50 under setting [1] was 20 µM [falling, partial curve].

With `Cc1cc(C)nc(-n2nc(C)cc2Nc2ccccc2)n1`, the AC50 under setting [1] is 15.8 µM [falling, partial curve]. Same read-out and setting: with `COc1ccc(NC(=O)c2sc3nc4c(cc3c2N)CN(C(C)C)CC4)c(OC)c1` the figure was 12.6 µM [falling, partial curve]; with `Cc1cccc(C(=O)NCC(c2ccc3c(c2)OCO3)N2CCN(c3ccccc3F)CC2)c1` (stereo not drawn), 25.1 µM [falling, partial curve]; with `COc1cc(-c2noc(CSc3nc(-c4ccccc4)cc(=O)[nH]3)n2)cc(OC)c1OC`, 12.6 µM [falling, partial curve, poor fit]. Consider `CCOc1ccc2nc(-c3ccccc3)[nH]c2c1`, for which the AC50 under setting [1] is 25.1 µM [falling, partial curve]. With `COc1ccc(OC)c(NC(=O)Cn2cnc3sc(C)c(S(=O)(=O)N4CCN(c5ccccc5OC)CC4)c3c2=O)c1`, under setting [1], the AC50 was 12.6 µM [falling, partial curve]. With `COc1ccc(NC(=O)c2ccc3c(=O)n4nc(Nc5cc(C)ccc5C)sc4nc3c2)cc1`, under setting [1], the AC50 is 3.16 µM [falling, single point]. Still for that read-out and setting: the figure for `O=C1CN(C(=O)c2ccc(Br)o2)C(c2ccc(F)cc2)c2cc(F)ccc2N1` (stereo not drawn) is 25.1 µM [falling, partial curve]. As for `Cc1cc(C)cc(OCc2nnc(SCC(=O)c3ccccc3)o2)c1`, the AC50 under setting [1] is 15.8 µM [falling, partial curve].

Turning to `CCOC(=O)c1sc2ncn(C(CC)C(=O)OCC)c(=O)c2c1C` (stereo not drawn), the AC50 under setting [1] is 31.6 µM [falling, single point]. `c1ccc(Cc2nnc(SCc3nc(-c4cccs4)no3)n2-c2ccccc2)cc1`: the AC50 under setting [1] is 25.1 µM [falling, single point]. As to `Cc1sc2ncnc(SCc3ccco3)c2c1C`, the AC50 under setting [1] was 31.6 µM [falling, partial curve]. Still for that read-out and setting: with `COc1cccc(NC(=O)c2sc3nc(C)c(C(=O)Nc4ccc(C)cc4C)c(-c4sccc4C)c3c2N)c1` the figure was 2 µM [falling, full curve]. Still for that read-out and setting: with `CC(C)c1ccc2oc(-c3cc(NC(=O)c4cccs4)ccc3Cl)nc2c1` the figure was 3.98 µM [falling, partial curve]; with `Cc1cc(C)c(Cn2c(CCNC(=O)c3ccco3)nc3ccccc32)c(C)c1`, 25.1 µM [falling, partial curve].

As to `Cc1ccc([C@H]2Nc3ccc(S(=O)(=O)Nc4cccc(Cl)c4C)cc3[C@H]3C=CC[C@H]32)cc1`, under setting [1], the AC50 was 12.6 µM [falling, partial curve].

`Cc1ccc(Nc2nnc(-c3ccc(C)c(S(=O)(=O)N4CCN(C)CC4)c3)c3ccccc23)c(C)c1`: the AC50 under setting [1] is 15.8 µM [falling, partial curve]. Consider `CCOc1ccc2nc(N3CCC(C(=O)N4CCN(c5ccccn5)CC4)CC3)sc2c1`, for which, under setting [1], the AC50 was 7.94 µM [falling, partial curve]. As for `CCCC(c1nnnn1Cc1ccc(OC)cc1)N1CCN(c2ccccc2OC)CC1` (stereo not drawn), the concentration at half-maximal activity (AC50) under setting [1] is 31.6 µM [falling, single point]. The same measure, in the same setting: the figure for `COC(=O)c1cc2oc3ccccc3c2n1Cc1nc(-c2cccc(Cl)c2)oc1C` is 2 µM [rising, partial curve]; for `Cc1ccc(-n2nc3c(N4CCC(C(=O)N5CCC(C)CC5)CC4)nnc(C)c3c2C)cc1` it is 5.01 µM [falling, single point].

Consider `COc1cc(OC)cc(C(=O)Nc2ccc(S(=O)(=O)N3CCCCC3c3cccnc3)cc2)c1` (stereo not drawn), for which the AC50 under setting [1] is 31.6 µM [falling, partial curve].

For the molecule `O=C(Nc1cccc(Cl)c1Cl)c1cc(S(=O)(=O)N2CCC3(CC2)OCCO3)ccc1F`, under setting [1], the AC50 is 31.6 µM [falling, partial curve, poor fit]. On the same count and under the same terms, with `N#CC1=C(N)N(c2ccccc2)C2=C(C(=O)CCC2)C1c1cccs1` (stereo not drawn) the figure was 1 µM [falling, full curve]. With `COc1ccc(-c2noc(CN3CCC(Cc4ccccc4)CC3)n2)cc1`, under setting [1], the AC50 was 15.8 µM [falling, partial curve].

For the molecule `CCOc1ccccc1N1CC(c2nc3ccccc3n2CCOc2ccc(OC)cc2)CC1=O` (stereo not drawn), the AC50 under setting [1] was 25.1 µM [falling, single point].

`CC(=O)N(Cc1cccnc1)c1nc2c(C)cc(C)cc2s1`: the AC50 under setting [1] is 10 µM [rising, partial curve]. As to `O=C(O)CCc1ccc(-c2ccc(Br)cc2)o1`, the AC50 under setting [2] is 39.8 µM [rising, single point] and the AC50 under setting [3] is 20 µM [falling, partial curve].
